Data published in PubChem BioAssay AID1347075 (National Center for Advancing Translational Sciences (NCATS), 2019).
The whole screen tested about 400,000 compounds, of which about 5,500 (1.4%) were called active. Inconclusive results, whose numbers are uncertain, are shown with a selection of clear calls. Calls follow the shape of the dose curve; as a rule, active = well fitted cell-killing curve with a large enough effect; inconclusive = small, poorly fitted or top-dose-only effect, or effect the other way; inactive = flat fitted curve, though single readings scatter. Where the call is inconclusive, the potency comes from a doubtful curve fit.

experiment: qHTS assay for MDR1-selective chemotherapeutics: Primary screen using the parental adenocarcinoma cell KB-3-1; conditions: KB-3-1 viability, CellTiter-Glo ATP luminescence, 72 h; activity change, negative = cytotoxic: at 46.1 µM (top of the series); also: nearly all actives have a fitted effect of over 60% in size
Summary of the method: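 Parental KB-3-1 adenocarcinoma cells in phenol-red-free DMEM with 10% FBS were pin-treated with compounds at several concentrations, incubated 72 h at 37 °C, and viability read by CellTiter-Glo luminescence; concentration-effect curves were fitted after normalization.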
% is scaled to controls: 0 for no effect and ±100 for the full control effect; potency is read from the fitted curve at half-maximal effect.

Structure (SMILES) | activity change, negative = cytotoxic | Potency
CCC(=O)N1CCC1(C)C(=O)Nc1ccc2nc(C)ccc2c1 (configuration not stated) | inactive: 0% | 
COC(=O)c1ccc(NC(=O)C2CC2)o1 | inactive: 1.91% | 
CCN1CCN(c2nc3ccccc3nc2C(C#N)S(=O)(=O)c2ccc(C)cc2)CC1 (configuration not stated) |  | inconclusive: 4.61 µM [cytotoxic, partial curve, poor fit]
O=C(/C=C\NCC(=O)c1ccccc1)c1ccc2ccccc2c1 | inactive: -1.27% | 
Cc1c(C(C)C)c(=O)n(-c2ccc(S(=O)(=O)NCc3ccccc3)cc2)n1C |  | inconclusive: 8.2 µM [cytotoxic, partial curve, poor fit]
Cc1ccccc1C(=O)N1CCC(C(=O)Nc2ccc(S(=O)(=O)N3C(C)CCCC3C)cc2)CC1 (configuration not stated) |  | inconclusive: 18.4 µM [cytotoxic, single point]
Cc1ccc(-c2nc3c(C)cc(Br)cn3c2Cc2cccc(F)c2)cc1 |  | inconclusive: 16.4 µM [cytotoxic, single point]
O=c1[nH]c(-c2cccnc2)nc2ccccc12 | inactive: 8.23% | 
O=C(NC(=S)Nc1cccc(NC(=S)NC(=O)c2ccccc2)c1)c1ccccc1 | inactive: -5.91% | 
CCc1nn(CCCC(=O)NCc2ccc(OC(C)C)cc2)c(=O)c2cc3occc3n12 |  | active: 7.31 µM
CSc1ccccc1OCc1cc(C(=O)N2CCN(C)C(c3ccccc3)C2)no1 (configuration not stated) | inactive: 7.25% | 
CC1=CC2C(C(O)CC3(C)C2CC(C)C32OCOC23COCO3)C2(C)C/C(=C\O)C(=O)C=C12 (configuration not stated) |  | inconclusive: 29.1 µM [cytotoxic, single point]
C=C(C)COc1ccc(-c2[nH]ncc2-c2ccccc2)c(O)c1 | inactive: -1.75% | 
CCOC(=O)Cc1nn(Cc2nc(-c3ccc(C#N)cc3)cs2)c(=O)c2ccccc12 |  | inconclusive: 23.1 µM [cytotoxic, single point]
O=[N+]([O-])c1ccc2nc(-c3ccc(Cl)cc3)n(OCc3ccccc3)c2c1 | inactive: 15.2% | 
COc1ccc(CN(C)CC(=O)Nc2ccccc2C(F)(F)F)cc1 |  | inconclusive: 29.1 µM [cytotoxic, single point]
Cc1ccc(NNC(=O)c2ccno2)cc1C |  | active: 16.4 µM
COc1ccccc1/C=C(\C)C(=O)c1c(C)cc(C)[nH]c1=O |  | inconclusive: 2.31 µM [rising, full curve]
CC(C)(C)NC(=O)C1CCN(c2nc3ccccc3nc2C(F)(F)F)CC1 | inactive: 8.23% | 
O=C(Nc1cc(Cl)cc(Cl)c1)N[C@@H]1CC[C@@H](CCNS(=O)(=O)c2cccc(F)c2)O[C@@H]1CO |  | inconclusive: 20.6 µM [cytotoxic, partial curve, poor fit]
C=CCN1C(=NC(=O)COc2ccc(Cl)cc2)SC2CS(=O)(=O)CC21 (configuration not stated) | inconclusive: -48.6% | 
O=C1CCCC2=C1C(c1ccc(O)c(Br)c1)C1=C(CCCC1=O)N2c1ccccc1 | inactive: -14.9% | 
COc1ccc(/C=C(/NC(=O)c2ccccc2)C(=O)NCC2CCCO2)cc1 (configuration not stated) |  | inconclusive: 1.46 µM [rising, full curve]
Cc1nnc(SCC(=O)Nc2sccc2C#N)s1 | inactive: 12% | 

Compounds listed so far containing bromine, in the order listed:
Structure (SMILES) | activity change, negative = cytotoxic | Potency
Cc1ccc(-c2nc3c(C)cc(Br)cn3c2Cc2cccc(F)c2)cc1 |  | inconclusive: 16.4 µM [cytotoxic, single point]
O=C1CCCC2=C1C(c1ccc(O)c(Br)c1)C1=C(CCCC1=O)N2c1ccccc1 | inactive: -14.9% | 

(more compounds)

Structure (SMILES) | activity change, negative = cytotoxic | Potency
CC(=O)c1c(C)[nH]c(C(=O)Nc2cccc(C(F)(F)F)c2)c1C |  | inconclusive: 18.4 µM [cytotoxic, single point]
COc1ccc(C(=O)NCCn2cc(SCc3c(F)cccc3Cl)c3ccccc32)cc1 |  | inconclusive: 29.1 µM [cytotoxic, single point]
Cc1c(-c2ccccc2)n[nH]c1C(=O)NN | inactive: -4.58% | 
O=C(COC(=O)Cn1nnc2ccccc21)NC1CCCC1 | inactive: -7.66% | 
O=C(COC(=O)Cc1ccc(S(=O)(=O)N2CCOCC2)s1)Nc1ccc(F)cc1F | inactive: 8.13% | 
CCOC(=O)c1cccc(NC(=O)c2ccc3c(c2)OCO3)c1 |  | inconclusive: 32.6 µM [cytotoxic, single point]
O=C(O)CCSc1nc2ccccc2n1-c1ccccc1 | inactive: 12.6% | 
CCN(Cc1ccccc1)S(=O)(=O)c1cn(C)cn1 | inactive: 2.89% | 
CCC(Cc1ccccc1)NS(=O)(=O)c1c(C)nc2scc(C)n2c1=O (configuration not stated) | inactive: 2.94% | 
O=C(CC1CCCCC1)Nc1nc2ccccc2s1 | inactive: -4.6% | 
COc1ccc(OC)c2sc(N3CCN(C(=O)c4ccco4)CC3)nc12 | inactive: -8.53% | 
COc1ccc(/C=C/C(=O)c2ccc(C(=O)/C=C/c3ccc(OC)c(OC)c3)cc2)cc1OC |  | inconclusive: 16.4 µM [cytotoxic, single point]
CC(C)C[C@@H](COCc1ccc(C(F)(F)F)cc1)N1CCN(C(=O)c2ccc(C(F)(F)F)cc2)CCC1=O |  | inconclusive: 20.6 µM [cytotoxic, single point]
Cc1ccc2ccc(C(Nc3cccc(C(F)(F)F)c3)c3cccnc3)c(O)c2n1 (configuration not stated) | inactive: 6.5% | 
COc1cc(-c2nc3ccccn3c2NCc2ccccc2)ccc1SC1CCCCC1 |  | inconclusive: 29.1 µM [cytotoxic, single point]
Cc1cc(C)cc(C(=O)OCC(=O)Nc2cccc(S(=O)(=O)NC3=NCCCCC3)c2)c1 |  | inconclusive: 29.1 µM [cytotoxic, single point]
Cc1cccc(NC(=O)CSc2nc3ccc(NC(=O)COc4ccccc4C)cc3s2)c1 |  | inconclusive: 9.2 µM [cytotoxic, partial curve]
O=C1c2ccccc2NC(c2ccc([N+](=O)[O-])cc2)N1O (configuration not stated) |  | inconclusive: 29.1 µM [cytotoxic, single point]
COc1ccc(NC(=O)c2oc3ccc(S(=O)(=O)N4CCC5(CC4)OCCO5)cc3c2C)cc1 |  | inconclusive: 10.3 µM [cytotoxic, partial curve]
Cc1nc2c(C(=O)NCc3ccc4c(c3)OCO4)c[nH]n2c(=O)c1Cl |  | inconclusive: 29.1 µM [cytotoxic, single point]
O=C(CCc1c[nH]c2ccccc12)NCc1ccc2c(c1)OCO2 | inactive: 3.47% | 
O=C(N/N=C/c1ccc(Cl)cc1)c1cc2c(s1)-c1ccccc1CC2 |  | active: 20.6 µM
O=C(Nc1cccc(/C=C/c2ccccn2)c1)c1ccc(-n2cncn2)c([N+](=O)[O-])c1 |  | inconclusive: 6.51 µM [rising, partial curve, poor fit]
O=S(=O)(c1cccc(S(=O)(=O)N2CCCC2)c1)c1cccc(S(=O)(=O)N2CCCC2)c1 |  | inconclusive: 23.1 µM [cytotoxic, single point]

2 of these compounds in another layout:
Structure (SMILES),"activity change, negative = cytotoxic",Potency
Cc1cc(C)cc(C(=O)OCC(=O)Nc2cccc(S(=O)(=O)NC3=NCCCCC3)c2)c1,,"inconclusive: 29.1 µM [cytotoxic, single point]"
Cc1cccc(NC(=O)CSc2nc3ccc(NC(=O)COc4ccccc4C)cc3s2)c1,,"inconclusive: 9.2 µM [cytotoxic, partial curve]"

More results follow:

Structure (SMILES) | activity change, negative = cytotoxic | Potency
CCCNC(=O)CCC(=O)N1Cc2cccc(OC)c2Oc2ncccc21 | inactive: -7.84% | 
CCC(NC(=O)c1ccccc1NC(=O)c1ccc(OC)cc1)C(=O)N1CCCC1 (configuration not stated) |  | inconclusive: 11.6 µM [rising, partial curve, poor fit]
O=S(=O)(N=C(NS(=O)(=O)c1ccc(Cl)cc1)c1ccccc1)c1ccc(Cl)cc1 |  | inconclusive: 18.4 µM [cytotoxic, single point]
C/C(=C1/C=Nc2ccccc21)c1ccc(N(C)C)cc1 |  | inconclusive: 23.1 µM [cytotoxic, single point]
CCOC(=O)C1=C(c2ccc(O)cc2)NC(=O)NC1C (configuration not stated) | inactive: -1.59% | 
c1ccc(C2[C@H]3CN(Cc4cccnc4)[C@H](c4ccccc4)C34CC2(c2cccnc2)C4)cc1 (some centres not stated) |  | inconclusive: 23.1 µM [cytotoxic, single point]
O=C(O)/C=C\C(=O)Nc1ccccc1C#Cc1ccc(Br)cc1 |  | inconclusive: 29.1 µM [cytotoxic, single point]
CCS(=O)(=O)Nc1ccc(C2=NN(C(=O)c3ccco3)C(c3ccco3)C2)cc1 (configuration not stated) |  | active: 3.66 µM
COc1ccc(NS(=O)(=O)c2ccc3c(c2)CCCN3C(C)=O)cc1 |  | inconclusive: 25.9 µM [cytotoxic, partial curve, poor fit]
CC(C)c1ccc(C(=O)NNC(=O)c2ccncc2)cc1 |  | inconclusive: 29.1 µM [rising, single point]
Cc1nnc(NC(=O)C2CCN(S(=O)(=O)c3ccc(F)c(F)c3)CC2)o1 |  | inconclusive: 29.1 µM [rising, single point]
CN(C)c1ccc(/C=N/NC(N)=S)cc1[N+](=O)[O-] |  | active: 14.6 µM
CCOC(=O)/C=C/C(=O)OCC(=O)Nc1cccc(Br)c1 |  | inconclusive: 0.0092 µM [cytotoxic, full curve]
N#Cc1c(NC(=O)c2cc(-n3cnnc3)ccc2Cl)sc2c1CCCC2 |  | inconclusive: 25.9 µM [cytotoxic, partial curve, poor fit]
Cc1cccc(C)c1OCC(=O)Nc1ccccc1N1CCCCC1 |  | inconclusive: 29.1 µM [cytotoxic, single point]
CCn1nnnc1SCC(=O)N(C)C1CCS(=O)(=O)C1 (configuration not stated) | inactive: 1.24% | 
COC(=O)C[C@H]1c2cc(C(F)(F)F)ccc2S(=O)(=O)N1Cc1ccccc1 |  | inconclusive: 18.4 µM [rising, single point]
COc1ccc(NC(=O)c2c(NC(=O)C(F)(F)F)sc3c2CCCCC3)cc1 | inactive: -3.15% | 
COc1ccccc1CNC(=O)CCc1cn(C)c2ccccc12 | inactive: -3.63% | 
COc1cc2c(cc1OC)C(C)N(C(=O)c1cc(Cl)nc(Cl)c1)CC2 (configuration not stated) |  | inconclusive: 3.66 µM [cytotoxic, full curve, poor fit]
Cc1cccc(N2CCN(C(=O)c3nn(C)c4c3CS(=O)(=O)c3ccccc3-4)CC2)c1C | inconclusive: -42.8% [cytotoxic] | 
CC(=O)c1cccc(NC(=O)CN2C(=O)CCc3cc(S(=O)(=O)N4CCCCC4)ccc32)c1 |  | inconclusive: 29.1 µM [cytotoxic, single point]
CNC(=O)c1ccsc1NC(=O)c1ccc(S(=O)(=O)N2CCCc3ccccc32)cc1 |  | active: 8.2 µM
NC(=O)N/N=C/c1ccc(-c2ccc([N+](=O)[O-])cc2)o1 | inactive: -4.95% | 
